Assay results from PubChem BioAssay AID540256 (National Center for Advancing Translational Sciences (NCATS), 2011).
Hit rate of the full screen: of about 300,000 compounds, about 3,700 (1.2%) were called active. Inconclusive results, whose numbers are uncertain, are shown with a selection of clear calls. Calls come from the whole dose curve; tested in HEK293 cells. Where the call is inconclusive, the potency comes from a doubtful curve fit.

Assay: qHTS for Inhibitors of binding or entry into cells for Lassa Virus; note: nearly all actives have a fitted effect of over 50% in size
Details: Lassa virus pseudotype entry inhibition, cell reporter; series mostly up to 37.9 µM
Potency is the fitted concentration of half-maximal effect.

| Compound | Potency |
| --- | --- |
| CC(NC(=O)/C(=C/c1ccc(OC(F)F)cc1)c1ccccc1)c1ccccc1 (centres undefined) | inactive |
| CCN(CC)CCCN(C(=O)c1cccs1)c1nc(-c2ccc(OC)cc2)cs1 | inconclusive: 32.6 µM [inhibitor, single point] |
| O=C(Nc1ccc(Cl)cc1C(=O)NCc1cccnc1)c1ccc(Cl)cc1Cl | inconclusive: 1.26 µM [inhibitor, full curve, poor fit] |
| O=C(CCSc1ccccc1Cl)Nc1cccc([N+](=O)[O-])c1 | inconclusive: 6.51 µM [activator, single point] |
| CCCSc1nc(N)nc2c1ncn2C1OC(CO)C(O)C1O (centres undefined) | inconclusive: 8.91 µM [activator, partial curve] |
| CC(C)(C)c1nc2c(Br)cc(Br)cc2c(=O)o1 | inconclusive: 0.891 µM [inhibitor, single point] |
| Fc1ccc(/C=N/NC2=Nc3cccc4cccc2c34)cc1 | inconclusive: 3.26 µM [activator, single point] |
| O=C(Cc1sc(-c2ccccc2Cl)nc1-c1ccccc1)Nc1ccccc1 | inconclusive: 3.16 µM [inhibitor, partial curve, poor fit] |
| O=C(CSc1nc2ccccc2c(=O)n1-c1ccccc1)N1CCc2ccccc2C1 | active: 10 µM |
| O=C(CC1C(=O)NCCN1Cc1cccc(F)c1)NCCCCCN1CCOCC1 (centres undefined) | inactive |
| O=C(CC1C(=O)NCCN1Cc1ccc(-c2ccccc2)cc1)NCC1CC1 (centres undefined) | inconclusive: 10 µM [inhibitor, partial curve, poor fit] |
| CCC(C)(C)C1CCC(NC(=O)N2CCN(c3ccccc3O)CC2)CC1 (centres undefined) | inconclusive: 6.31 µM [inhibitor, full curve, poor fit] |
| CC(C)C1Cc2c(C#N)c(N)sc(=S)c2CO1 (centres undefined) | inactive |
| Cc1ccc2c(c1)nnn2C1CCN(CC(=O)Nc2ccc3c(c2)OCCO3)CC1 | inconclusive: 20.6 µM [inhibitor, single point] |
| CN(CC(=O)Nc1ccccc1Br)C(=O)c1cccnc1Nc1cccc(C(F)(F)F)c1 | inconclusive: 35.5 µM [inhibitor, single point] |
| O=C1OC(c2cccs2)=N/C1=C\c1ccc(-c2ccccc2Cl)o1 | inactive |
| O=C(NCc1ccccc1)Nc1cccn(Cc2ccccc2)c1=O | inconclusive: 2.82 µM [inhibitor, partial curve, poor fit] |
| CC(C)CCNC(=O)c1cnc2sc(N3CCCCC3)nn2c1=O | inconclusive: 3.16 µM [activator, single point] |
| CCN(CC)S(=O)(=O)c1ccc(N2CCOCC2)c(NC(=O)c2cc(C)cc(C)c2)c1 | inactive |
| CCOC(=O)c1c(NC(=O)C2=C(C)NC(=S)NC2c2ccc(F)cc2)sc(C)c1C (centres undefined) | inconclusive: 32.6 µM [inhibitor, single point] |
| COc1ccc(N(C(=O)c2cccc(C)c2)S(=O)(=O)c2ccc(Cl)cc2)cc1 | inconclusive: 12.6 µM [inhibitor, partial curve, poor fit] |
| CC/C(=N/O)C(=O)c1ccc(Br)cc1 | active: 8.91 µM |

| Compound | Potency |
| --- | --- |
| Cc1ccc2[nH]c3c(N4CCN(Cc5ccccc5)CC4)ncnc3c2c1 | inconclusive: 16.4 µM [inhibitor, single point] |
| O=C1NC(=O)C(Cc2cccc(Oc3ccccc3)c2)S1 (centres undefined) | inconclusive: 14.1 µM [activator, single point] |
| Cc1ccc(NC(=O)CO/N=C/c2ccccc2C)c(C)c1 | inactive |
| Cc1cc(C)c(S(=O)(=O)Nc2ccccc2C(=O)OCC(=O)NCc2ccccc2)c(C)c1 | active: 10 µM |
| CCOC(=O)c1c(C)[nH]c(C)c1C(=O)COC(=O)/C=C/c1ccc(OC)cc1 | inconclusive: 8.91 µM [inhibitor, partial curve] |
| CC1(C)Cc2c(c(N3CCOCC3)nc3sc4c(NCC5CCCO5)nnnc4c23)CS1 (centres undefined) | inconclusive: 2.82 µM [inhibitor, partial curve, poor fit] |
| CC(C)(C)C(=O)Nc1ccc(C(=O)Nc2cccnc2)cc1 | inconclusive: 6.51 µM [activator, partial curve] |
| Cc1cc2ncc(-c3ccc(Cl)cc3)cn2n1 | inconclusive: 35.5 µM [inhibitor, single point] |
| CCN1C(=O)c2cccc3c(NC(=O)c4ccc(S(=O)(=O)N(C)C)cc4)ccc1c23 | inconclusive: 5.01 µM [inhibitor, partial curve, poor fit] |
| COc1ccc(Cl)c2sc(N(Cc3cccnc3)C(C)=O)nc12 | inconclusive: 11.2 µM [activator, partial curve, poor fit] |
| Cc1ccccc1NS(=O)(=O)c1ccc(NC(=O)c2nc3ncccn3n2)cc1 | inconclusive: 0.517 µM [activator, partial curve] |
| CNc1oc(-c2ccco2)nc1C#N | inactive |
| COc1ccccc1CNC(=O)[C@@H]1CCCN1S(=O)(=O)c1ccccc1F | inactive |
| C/C(=N/NC(=O)CCc1ccccc1)c1ccc2c(c1)OCO2 | inconclusive: 8.91 µM [inhibitor, partial curve, poor fit] |
| CC#CC[N+](C)(C)CCCCCCCCCCCC | inconclusive: 16.4 µM [inhibitor, single point] |
| CC(=O)Nc1ccc(N(C(=O)c2ccco2)C(C(=O)NC2CCCC2)c2cccs2)cc1 (centres undefined) | inactive |
| O=C(NC(=S)Nc1ccccc1N1CCOCC1)c1ccc(-c2ccccc2F)o1 | inactive |
| O=C(OCc1nnc(-c2ccccc2)o1)c1cc(F)c(F)cc1Cl | inactive |
| O=C(Nc1nccs1)c1cnccn1 | inconclusive: 29.1 µM [activator, single point] |
| Cc1ccc(/C=C/C(=O)NC(=S)N2CCN(C)CC2)cc1 | inconclusive: 2.24 µM [inhibitor, partial curve, poor fit] |
| Cn1c(SCc2ccc(F)cc2)nnc1-c1ccccn1 | inconclusive: 0.0651 µM [activator, full curve, poor fit] |
| Cc1ccccc1CNC(=O)CN(c1cccc(C)c1C)S(C)(=O)=O | inconclusive: 35.5 µM [inhibitor, single point] |
